Measurements reported in PubChem BioAssay AID1259405 (NCATS, 2018).
Here is one part, drawn at random, of about 50,000 reagents. Over the whole deposit, about 4,000 (8%) got an active call. 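Mouse siRNA library applied to hamster cells; one well for each siRNA.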 Reagents against one gene are numbered here.

Screen: 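Silenced genes that increase secreted GFP made by CHO cells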 (primary screen)
Cell system: Chinese hamster CHO-K1 ovary cells with stable secreted eGFP expression
Reagents: single siRNA against mouse genes, 0.8 pmol siRNA per well (2 µl of 400 nM stock)
Duration: 3 days
Detection: 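Percent of the per-plate non-targeting control median for intracellular GFP per well by laser scanning cytometry and for cell viability by ATP luminescence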
Scale: GFP, % of control: higher = more GFP per well, higher productivity; viability (ATP), % of control: higher = more viable cells (more ATP)
Active means: 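Called active when intracellular GFP, relative to negative control, is at or above 120%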

target gene	siRNA no.	GFP, % of control	viability (ATP), % of control	Outcome
Gpr3	1	156	88.5	active
Gpr3	2	70.6	68.3	inactive
Gpr3	3	93.6	77.8	inactive
Slc52a2	1	87.2	67.8	inactive
Slc52a2	2	74.6	39.3	inactive
Pip5kl1	1	63.9	79.4	inactive
Lrfn5	1	68.5	61.6	inactive
Lrfn5	2	83.3	83.2	inactive
Lrfn5	3	68.1	58.9	inactive
Npdc1	1	44.7	54.5	inactive
Npdc1	2	66.6	83.4	inactive
Npdc1	3	62.7	45.1	inactive
4921509C19Rik	1	45.2	74	inactive
4921509C19Rik	2	46.4	50.7	inactive
4921509C19Rik	3	93.6	76.6	inactive
Uba6	1	56.2	53.5	inactive
Uba6	2	59.9	44.6	inactive
Uba6	3	78.4	72.4	inactive
Aga	1	116	123	inactive
Aga	2	79.7	83.4	inactive
Aga	3	242	176	active

The list goes on (8 carried over from the part before).
target gene	siRNA no.	GFP, % of control	viability (ATP), % of control	Outcome
4921509C19Rik	2	46.4	50.7	inactive
4921509C19Rik	3	93.6	76.6	inactive
Uba6	1	56.2	53.5	inactive
Uba6	2	59.9	44.6	inactive
Uba6	3	78.4	72.4	inactive
Aga	1	116	123	inactive
Aga	2	79.7	83.4	inactive
Aga	3	242	176	active
Dkk3	1	82.5	96.1	inactive
Dkk3	2	93	127	inactive
Dkk3	3	24.7	64	inactive
Otos	1	92	53.9	inactive
Otos	2	99.3	65.3	inactive
Otos	3	81.2	42.7	inactive
Flt3l	1	122	85.9	active
Flt3l	2	79.8	61.8	inactive
Bach1	1	71.6	70.8	inactive
Bach1	2	111	77.9	inactive
Bach1	3	62.4	90.5	inactive
Cep83	1	107	73.9	inactive
Cep83	2	61.1	47.6	inactive
Cep83	3	90.6	113	inactive
Oas1c	1	139	101	active
Oas1c	2	71	78.5	inactive
Oas1c	3	69.1	64.8	inactive
Prdm8	1	78.9	69	inactive
Prdm8	2	75.2	74.9	inactive
Prdm8	3	80.5	90.5	inactive
Tcstv2a	1	96.3	64.6	inactive
Tcstv2a	2	78	51.5	inactive
Tcstv2a	3	87.6	71.3	inactive
A530053G22Rik	1	241	70.8	active
A530053G22Rik	2	76.1	84	inactive
A530053G22Rik	3	65.9	69.2	inactive
Coq4	1	66.6	85.6	inactive
Coq4	2	36.5	32.3	inactive
Coq4	3	78.7	87.3	inactive
Usp11	1	80.3	99.3	inactive
Usp11	2	50.6	59.2	inactive
Usp11	3	33.7	54	inactive
Cst13	1	41.4	51.5	inactive
Cst13	2	74.9	56.3	inactive
Cst13	3	109	99.6	inactive
Cfap68	1	71	88.2	inactive
Cfap68	2	90.3	70.8	inactive
Cfap68	3	69.5	44	inactive
